Some entries share one result that the patent states for a list of compounds.
Legend:
Type in all cases: in vivo
Erysiphe graminis = Erysiphe graminis control test (Test Example 2, large-volume foliar spray on wheat); conditions: 200 ppm, flowable (Formulation Example 6), sprayed on wheat (NORIN No. 73), inoculated one day after, 7 days at 23° C.
Leptosphaeria nodorum = Leptosphaeria nodorum control test (Test Example 4, large-volume foliar spray on wheat); conditions: 200 ppm, flowable (Formulation Example 6), sprayed on wheat (NORIN No. 73) before inoculation, 4 days at 15° C. dark high humidity then 7 days under illumination
Pyricularia oryzae = conditions: 200 ppm, flowable (Formulation Example 6), sprayed on rice (NIHONBARE) before inoculation, 6 days at 28° C. under high humidity
Plasmopara viticola = Plasmopara viticola control effect test (Test Example 5, large-volume foliar spray on grape); conditions: 200 ppm, flowable (Formulation Example 6), sprayed on grape (Berry A) before inoculation, 1 day at 23° C. high humidity then 6 days at room temperature
Puccinia striiformis = Puccinia striiformis control test (Test Example 3, large-volume foliar spray on wheat); conditions: 200 ppm, flowable (Formulation Example 6), sprayed on wheat (NORIN No. 73) before inoculation, 1 day dark high humidity at 23° C. then 6 days under illumination

Measured: lesion area on plants relative to the lesion area of a non-treatment district

Cc1ccc(-c2ccc(F)cc2)cc1Cn1c(C(F)F)nn(C)c1=O [Compound 20, 5-difluoromethyl-4-{5-(4-fluorophenyl)-2-methylbenzyl}-2-methyl-2,4-dihydro-3H-1,2,4-triazol-3-one]
not more than 10%: all assays above

Cc1ccc(-c2cccc(C(F)(F)F)c2)cc1Cn1c(C(F)F)nn(C)c1=O [Compound 24, 5-difluoromethyl-2-methyl-4-{2-methyl-5-(3-trifluoromethylphenyl)benzyl}-2,4-dihydro-3H-1,2,4-triazol-3-one]
not more than 10%: all assays above

C/C=C(\C)c1ccc(C)c(Cn2c(C(F)F)nn(C)c2=O)c1 [Compound 47, 5-difluoromethyl-2-methyl-4-{2-methyl-5-((E)-1-methyl-1-propenyl)benzyl}-2,4-dihydro-3H-1,2,4-triazol-3-one]
not more than 10%: all assays above

Cc1ccc(-c2cccs2)cc1Cn1c(C(F)F)nn(C)c1=O [Compound 104, 5-difluoromethyl-2-methyl-4-{2-methyl-5-(2-thienyl)benzyl}-2,4-dihydro-3H-1,2,4-triazol-3-one]
not more than 10%: all assays above

Cc1ccc(-c2ccsc2)cc1Cn1c(C(F)F)nn(C)c1=O [Compound 105, 5-difluoromethyl-2-methyl-4-{2-methyl-5-(3-thienyl)benzyl}-2,4-dihydro-3H-1,2,4-triazol-3-one]
not more than 10%: all assays above

Cc1ccc(-c2nccs2)cc1Cn1c(C(F)F)nn(C)c1=O [Compound 113, 5-difluoromethyl-2-methyl-4-{2-methyl-5-(2-thiazolyl)benzyl}-2,4-dihydro-3H-1,2,4-triazol-3-one]
not more than 10%: all assays above

Cc1ccc(-c2cccc(Cl)n2)cc1Cn1c(C(F)F)nn(C)c1=O [Compound 118, 4-{5-(6-chloro-2-pyridyl)-2-methylbenzyl}-5-difluoromethyl-2-methyl-2,4-dihydro-3H-1,2,4-triazol-3-one]
not more than 10%: all assays above

COc1cccc(-c2ccc(C)c(Cn3c(C(F)F)nn(C)c3=O)c2)n1 [Compound 120, 5-difluoromethyl-2-methyl-4-{2-methyl-5-(6-methoxy-2-pyridyl)benzyl}-2,4-dihydro-3H-1,2,4-triazol-3-one]
not more than 10%: all assays above

Cc1ccc(-c2cccc(C(F)(F)F)n2)cc1Cn1c(C(F)F)nn(C)c1=O [Compound 329]
not more than 10%: all assays above

Cc1ccnc(-c2ccc(C)c(Cn3c(C(F)F)nn(C)c3=O)c2)n1 [Compound 343, 5-difluoromethyl-2-methyl-4-{2-methyl-5-(4-methyl-2-pyrimidinyl)benzyl}-2,4-dihydro-3H-1,2,4-triazol-3-one]
not more than 10%: all assays above

Cc1ccc(-c2nccc(C(F)(F)F)n2)cc1Cn1c(C(F)F)nn(C)c1=O [Compound 345, 5-difluoromethyl-2-methyl-4-{2-methyl-5-(4-trifluoromethyl-2-pyrimidinyl)benzyl}-2,4-dihydro-3H-1,2,4-triazol-3-one]
not more than 10%: all assays above
